# According to the supplement of paper PMC9135407:
# Several values for one entry are separate records, joined by “and”; a condition that tells them apart may be missing. Equal values may be shown once. Where a name gives a salt, the structure may show the parent alone. ± gives the standard deviation of the averaged measurements. The list shows a part of the results. Plates or batches differ in their baseline, so values are only roughly comparable.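 Primary human stellate myofibroblasts activated in culture; inactivation shown by regained lipid droplets. Readout: fraction of Hoechst-counted cells exceeding a per-plate Bodipy threshold, duplicate wells, each plate with DMSO negative and nortriptyline positive controls. Hits: control-normalized score beyond the plate's top-tenth-percentile nortriptyline wells, or among its three best wells. Final well concentrations unstated.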
# Test system: primary human hepatic stellate cells (donor 1)
# Test: percent Bodipy-positive cells; higher = more lipid droplet accumulation
# Conditions: 48 h
# Description: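 Primary lipid accumulation screen in primary human hepatic stellate cell myofibroblasts (donor 1, passage 8) in 384-well plates. 100 nL of library compound was pin-transferred into 30 µL medium in duplicate, and cells were treated for 48 h. The 'Scaled' score combines distance from plate baseline, toxicity and reproducibility penalties, and is normalised to nortriptyline (positive) and DMSO (negative) controls on each plate. A hit is defined as scaled >0.85 or among the top 3 wells per plate.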
# [1] = library stock concentration: 3.33 mM
# [2] = library stock concentration: 10 mM
# [3] = library stock concentration: 1 mM
smiles,measurement,setting,value
CNC(=O)c1cc(Oc2ccc(NC(=O)Nc3ccc(Cl)c(C(F)(F)F)c3)c(F)c2)ccn1 [Regorafenib (BAY 73-4506)],percent Bodipy-positive cells,[1],9.08 ± 3.8%
same,percent Bodipy-positive cells,[2],23.2 ± 2.5%
CC(C)C[C@H](NC(=O)[C@H](O)[C@H](N)Cc1ccccc1)C(=O)O [Epibestatin hydrochloride],percent Bodipy-positive cells,[2],42.2 ± 4.6%
C=C1c2c(Cl)ccc(O)c2C(=O)C2=C(O)[C@]3(O)C(=O)C(C(N)=O)=C(O)[C@@H](N(C)C)[C@@H]3[C@@H](O)[C@H]12.O=C(O)c1cc(S(=O)(=O)O)ccc1O [Meclocycline sulfosalicylate],percent Bodipy-positive cells,,22 ± 3%
same,percent Bodipy-positive cells,library stock concentration: 2.9 mM,18.5 ± 0.45%
same,percent Bodipy-positive cells,[2],34.8 ± 18%
CCCCCCCCCCCCCCNC(=O)C1CCCCC1 [N-Cyclohexanecarbonyltetradecylamine],percent Bodipy-positive cells,[3],7.09 ± 1.9%
CNC[C@H](O)c1ccc(O)c(O)c1 [Epinephrine Bitartrate],percent Bodipy-positive cells,[1],10.1 ± 3.5%
same,percent Bodipy-positive cells,[2],43.3 ± 30%
CNC[C@H](O)c1ccc(O)c(O)c1 [(-)-Epinephrine bitartrate],percent Bodipy-positive cells,[2],68.1 ± 3.6%
CNC[C@H](O)c1ccc(O)c(O)c1 [Adrenaline bitartrate],percent Bodipy-positive cells,library stock concentration: 6 mM,2.89 ± 1.7%
same,percent Bodipy-positive cells,[2],9.96 ± 1.4%
CNC[C@H](O)c1ccc(O)c(O)c1 [Epinephrine HCl],percent Bodipy-positive cells,[1],5.65 ± 1.9%
same,percent Bodipy-positive cells,[2],11.7 ± 4.3%
CNC[C@H](O)c1ccc(O)c(O)c1 [(?)-Epinephrine hydrochloride],percent Bodipy-positive cells,[2],74.2 ± 2.5%
CC(C)NCC(O)COc1ccccc1-n1cccc1 (stereo not given) [Isamoltane hemifumarate],percent Bodipy-positive cells,[2],26.5 ± 5.1%
C=CC(=O)Nc1cc2c(Nc3ccc(F)c(Cl)c3)ncnc2cc1OCCCN1CCOCC1,percent Bodipy-positive cells,library stock concentration: 80 uM,17.8 ± 0.18%
same,percent Bodipy-positive cells,library stock concentration: 400 uM,17.4% and 19%
same,percent Bodipy-positive cells,library stock concentration: 2 mM,22.4% and 27.1%
same,percent Bodipy-positive cells,[2],94.5 ± 7.7%
O=C(NCc1ccccc1)c1csc(Nc2ccncn2)n1 [Thiazovivin],percent Bodipy-positive cells,[1],9.4 ± 1.3%
same,percent Bodipy-positive cells,[2],54.6 ± 4.1%
CCCCCCCCCCCCCCCCCCN(CCCCCCCCCCCCCCCCCC)CCCN(CCO)CCO [Avridine],percent Bodipy-positive cells,[2],28.1 ± 7.5%
CNCc1ccc(-c2cc(-c3nc(-c4ccc(S(=O)(=O)C(C)C)cc4)cnc3N)on2)cc1,percent Bodipy-positive cells,[2],98.21 ± 0.14%
CN1CCN(CCCN2c3ccccc3Sc3ccc(C(F)(F)F)cc32)CC1,percent Bodipy-positive cells,[2],95.51 ± 0.35%
CN1CCN(CCCN2c3ccccc3Sc3ccc(C(F)(F)F)cc32)CC1 [Trifluoperazine dihydrochloride],percent Bodipy-positive cells,,60 ± 2.6%
CN1CCN(CCCN2c3ccccc3Sc3ccc(C(F)(F)F)cc32)CC1 [Trifluoperazine hydrochloride],percent Bodipy-positive cells,[2],62.3 ± 0.8%
CN1CCN(CCCN2c3ccccc3Sc3ccc(C(F)(F)F)cc32)CC1 [Trifluoperazine 2HCl],percent Bodipy-positive cells,[1],30.6 ± 7.5%
same,percent Bodipy-positive cells,[2],98.92 ± 0.61%
CN1CCN(CCCN2c3ccccc3Sc3ccc(C(F)(F)F)cc32)CC1 [Trifluoperazine],percent Bodipy-positive cells,library stock concentration: 4.9 mM,37.7 ± 2.9%
"Nc1ccc2c3c(cccc13)C(=O)NC2=O [4-Amino-1,8-naphthalimide]",percent Bodipy-positive cells,[2],85.4 ± 1.9%
CC(S)C(=O)NCC(=O)O (stereo not given),percent Bodipy-positive cells,[2],31.7 ± 5.2%
CC(S)C(=O)NCC(=O)O (stereo not given) [Tiopronin],percent Bodipy-positive cells,[1],12.3 ± 5.7%
same,percent Bodipy-positive cells,[2],21.7 ± 1.6%
COc1ccc(OC)c(C(O)CNC(=O)CN)c1 (stereo not given) [Midodrine hydrochloride],percent Bodipy-positive cells,,35.1 ± 8.8%
same,percent Bodipy-positive cells,library stock concentration: 6.9 mM,10.4 ± 0.93%
same,percent Bodipy-positive cells,[2],40.3 ± 5.9%
COc1ccc(OC)c(C(O)CNC(=O)CN)c1 (stereo not given) [Pro-Amatine],percent Bodipy-positive cells,[2],22.2 ± 8.6%
CN(C)CCN1C(=O)c2ccccc2N(C)c2ccccc21 [Dibenzepine HCl],percent Bodipy-positive cells,library stock concentration: 6.8 mM,14.5 ± 8%
CC(=O)NS(=O)(=O)c1ccc(NC(=O)c2ccccc2C(=O)O)cc1,percent Bodipy-positive cells,[2],39.8 ± 13%
CN1CCC(NC(=O)C2=CC(=C3C(O)=CC(=O)C=C3Oc3ccc([N+](=O)[O-])cc3)ON2)CC1,percent Bodipy-positive cells,[2],93.2 ± 1.4%
CC[C@H](C)[C@H](N)C1=N[C@H](C(=O)N[C@@H](CC(C)C)C(=O)N[C@H](CCC(=O)O)C(=O)N[C@H](C(=O)N[C@H]2CCCCNC(=O)[C@H](CC(N)=O)NC(=O)[C@@H](CC(=O)O)NC(=O)[C@H](Cc3cnc[nH]3)NC(=O)[C@@H](Cc3ccccc3)NC(=O)[C@H]([C@@H](C)CC)NC(=O)[C@@H](CCCN)NC2=O)[C@@H](C)CC)CS1 [Bacitracin],percent Bodipy-positive cells,,8.35 ± 0.68%
same,percent Bodipy-positive cells,library stock concentration: 1.4 mM,4.39 ± 0.19%
same,percent Bodipy-positive cells,[1],9.17 ± 1.9%
same,percent Bodipy-positive cells,[2],28.6% and 13.5%
CCCCCCCCCCCCCCCCOCC(CO)OC (stereo not given) [1-Hexadecyl-2-O-methyl-glycerol],percent Bodipy-positive cells,[3],8.53 ± 2.4%
O=C(CCc1ccc(O)cc1)c1c(O)cc(O)cc1O [Phloretin],percent Bodipy-positive cells,[1],7.33 ± 1.1%
same,percent Bodipy-positive cells,[2],22.4% and 18.3%
OC(CNCC(O)C1CCc2cc(F)ccc2O1)C1CCc2cc(F)ccc2O1 (stereo not given) [Nebivolol],percent Bodipy-positive cells,[1],69.7 ± 14%
same,percent Bodipy-positive cells,[2],83.7 ± 11%
CN(CC(=O)N(Cc1ccc(C2CCCCC2)cc1)c1ccc(C(=O)O)cc1)S(=O)(=O)c1c(F)c(F)c(F)c(F)c1F,percent Bodipy-positive cells,[1],49 ± 1.4%
same,percent Bodipy-positive cells,[2],100%
Oc1c(I)cc(Cl)c2cccnc12 [Clioquinol],percent Bodipy-positive cells,,6.56 ± 1.7%
C[C@@H](O)[C@H]1C(=O)N2C(C(=O)O)=C(S[C@@H]3CN[C@H](CNS(N)(=O)=O)C3)[C@H](C)[C@H]12 [Doripenem Hydrate],percent Bodipy-positive cells,[1],9.01 ± 2.4%
same,percent Bodipy-positive cells,[2],10.6 ± 0.87%

# Given as tab-separated lines: part of the list above
smiles	measurement	setting	value
CNC[C@H](O)c1ccc(O)c(O)c1 [Epinephrine HCl]	percent Bodipy-positive cells	[1]	5.65 ± 1.9%
same	percent Bodipy-positive cells	[2]	11.7 ± 4.3%
CNC[C@H](O)c1ccc(O)c(O)c1 [(?)-Epinephrine hydrochloride]	percent Bodipy-positive cells	[2]	74.2 ± 2.5%
CC(C)NCC(O)COc1ccccc1-n1cccc1 (stereo not given) [Isamoltane hemifumarate]	percent Bodipy-positive cells	[2]	26.5 ± 5.1%
C=CC(=O)Nc1cc2c(Nc3ccc(F)c(Cl)c3)ncnc2cc1OCCCN1CCOCC1	percent Bodipy-positive cells	library stock concentration: 80 uM	17.8 ± 0.18%
same	percent Bodipy-positive cells	library stock concentration: 400 uM	17.4% and 19%
same	percent Bodipy-positive cells	library stock concentration: 2 mM	22.4% and 27.1%
same	percent Bodipy-positive cells	[2]	94.5 ± 7.7%
O=C(NCc1ccccc1)c1csc(Nc2ccncn2)n1 [Thiazovivin]	percent Bodipy-positive cells	[1]	9.4 ± 1.3%
same	percent Bodipy-positive cells	[2]	54.6 ± 4.1%
CCCCCCCCCCCCCCCCCCN(CCCCCCCCCCCCCCCCCC)CCCN(CCO)CCO [Avridine]	percent Bodipy-positive cells	[2]	28.1 ± 7.5%
CNCc1ccc(-c2cc(-c3nc(-c4ccc(S(=O)(=O)C(C)C)cc4)cnc3N)on2)cc1	percent Bodipy-positive cells	[2]	98.21 ± 0.14%
CN1CCN(CCCN2c3ccccc3Sc3ccc(C(F)(F)F)cc32)CC1	percent Bodipy-positive cells	[2]	95.51 ± 0.35%
CN1CCN(CCCN2c3ccccc3Sc3ccc(C(F)(F)F)cc32)CC1 [Trifluoperazine dihydrochloride]	percent Bodipy-positive cells		60 ± 2.6%
CN1CCN(CCCN2c3ccccc3Sc3ccc(C(F)(F)F)cc32)CC1 [Trifluoperazine hydrochloride]	percent Bodipy-positive cells	[2]	62.3 ± 0.8%
CN1CCN(CCCN2c3ccccc3Sc3ccc(C(F)(F)F)cc32)CC1 [Trifluoperazine 2HCl]	percent Bodipy-positive cells	[1]	30.6 ± 7.5%
same	percent Bodipy-positive cells	[2]	98.92 ± 0.61%
